These are yes or no findings as the source states them, for the method shown. Binding seen in cells or lysates may run through a third protein. Some results given as binding are weak or reduced against the parent protein; the word gives no strength.
Columns and labels:
[1] = target: JNK2 (mouse (endogenous in cortical synaptosomes)) (UniProt Q9WTU6); assay: co-IP; precipitation of the single isoforms JNK2 or JNK3 from purified cortical synaptosomal lysates of adult mice (500 ug of total lysate); Syntaxin-2 and Snap25 detected by western blotting
[2] = target: JNK3 (mouse (endogenous in cortical synaptosomes)) (UniProt Q61831); assay: as above

The chains behind the UniProt entries cited, without tags or fusion partners.
UniProt Q61831: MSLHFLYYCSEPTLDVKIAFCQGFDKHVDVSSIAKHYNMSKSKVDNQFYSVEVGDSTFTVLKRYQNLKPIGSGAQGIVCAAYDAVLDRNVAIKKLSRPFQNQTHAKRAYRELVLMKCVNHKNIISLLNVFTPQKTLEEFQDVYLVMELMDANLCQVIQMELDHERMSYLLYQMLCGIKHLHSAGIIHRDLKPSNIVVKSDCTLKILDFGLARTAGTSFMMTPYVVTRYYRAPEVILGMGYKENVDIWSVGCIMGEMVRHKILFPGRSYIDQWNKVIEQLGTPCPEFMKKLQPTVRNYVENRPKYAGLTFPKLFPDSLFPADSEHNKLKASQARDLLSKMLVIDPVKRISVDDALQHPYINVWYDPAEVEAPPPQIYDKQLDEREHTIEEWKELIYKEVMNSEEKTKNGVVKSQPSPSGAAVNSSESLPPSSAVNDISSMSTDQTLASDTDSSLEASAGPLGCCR
UniProt P60879: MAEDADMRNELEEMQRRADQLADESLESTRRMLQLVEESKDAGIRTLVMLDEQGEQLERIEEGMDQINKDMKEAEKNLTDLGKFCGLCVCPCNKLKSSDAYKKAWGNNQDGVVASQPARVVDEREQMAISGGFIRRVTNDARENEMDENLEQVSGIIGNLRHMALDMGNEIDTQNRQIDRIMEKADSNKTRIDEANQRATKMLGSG

Molecule | binding [1] | binding [2]
Snap25 (from UniProt P60879 1-206) | binds | binds
Syntaxin-2 (protein, UniProt Q00262 1-289) MRDRLPDLTACRTNDDGDTAVVIVEKDHFMDGFFHQVEEIRSSIARIAQHVEDVKKNHSIILSAPNPEGKIKEELEDLDKEIKKTANRIRGKLKSIEQSCDQDENGNRTSVDLRIRRTQHSVLSRKFVDVMTEYNEAQILFRERSKGRIQRQLEITGRTTTDDELEEMLESGKPSIFISDIISDSQITRQALNEIESRHKDIMKLETSIRELHEMFMDMAMFVETQGEMVNNIERNVVNSVDYVEHAKEETKKAIKYQSKARRKKWIIAAVAVAVIAVLALIIGLSVGK | binds | binds

Reference: article PMC5359460
